This note sets out measurements from PubChem BioAssay AID2685 (National Center for Advancing Translational Sciences (NCATS), 2010).

Usually AC50 stands for the midpoint of the concentration-response curve, whichever way the signal moves.

This assay in a line: qHTS Assay for Lipid Storage Modulators in Drosophila S3 Cells.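 On cell number change: cells counted by Cell Tracker Red CMTPX staining in the red channel.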 The settings on record: BODIPY lipid droplet fluorescence, 18-24 h; for cell number change: measured here: cell count max response, cells fed with added oleic acid. A digest of the protocol:
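Drosophila S3 cells loaded with oleic acid (400 uM, as added) and compounds at several concentrations; lipid droplets imaged by 488-nm laser-scanning cytometry, 500–530 nm intensity and object ratio to cell channel. Percent activity normalized to 20 uM Triacsin C.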
(In general: Quantitative high-throughput screening tests each substance at several concentrations.)

[1] abbreviates: measured here: lipid fluorescence (Fed channel) AC50, cells fed with added oleic acid.
Setting [2] is: measured here: cell number channel AC50, cells fed with added oleic acid.

Several values for one entry are separate records, joined by “and”; a condition that tells them apart may be missing. Identical values can stand only once. Some of the results follow. The main result of the screen is listed elsewhere. These columns were measured beside it and carry no call. Compounds called inactive in the main read-out are mostly missing here. The note in brackets gives the kind of curve behind each potency; many fits are weak.

Turning to `COc1cc(C2C3=C(CC(C)(C)CC3=O)OC3=C2C(=O)CC(C)(C)C3)cc([N+](=O)[O-])c1O`, the cell number change turned out to be 6.68%. Besides, under setting [1], the AC50 is 0.259 µM [rising, full curve, poor fit].
As for `COc1ccc2cc(S(=O)(=O)N3CCCC(C)C3)ccc2c1` (configuration not stated), the cell number change amounted to 8.55%. Moreover, the AC50 under setting [1] is 0.082 µM [falling, partial curve, poor fit].
Regarding `COc1cccc(CNc2ncnc3ccc(-c4c(C)noc4C)cc23)c1`, the cell number change was 3.42% and -0.368%. Under setting [2], the AC50 is 0.13 µM [falling, full curve, poor fit]. The AC50 under setting [1] was 16.4 µM [falling, partial curve, poor fit].
`O=C(NNC(=O)C12CC3CC(CC(C3)C1)C2)c1ccccc1O`: the cell number change was -16.4%. The AC50 under setting [1] was 29.1 µM [falling, single point].
In the case of `CC1(C)C2CCC(C2)C1(C)NC(=O)CNCc1cccs1` (configuration not stated), the cell number change came out at 2.98%. In addition, the AC50 under setting [1] was 29.1 µM [falling, partial curve, poor fit].
Consider `C[C@H]1CCC[C@@]2(O[C@@H](CCO)C[C@@H](O)[C@@H]2O)O1`, for which the cell number change was 0.818%. In addition, the AC50 under setting [1] is 0.082 µM [rising, full curve, poor fit].
With `CC12C(=O)N(c3ccc(C(=O)N4CCOCC4)cc3)C(=O)C1C1c3ccccc3C2c2ccccc21` (configuration not stated), the cell number change was -66.7%. For the same molecule, under setting [2], the AC50 was 11.6 µM [falling, partial curve].
Take `COc1ccc(C(=O)c2cn[nH]c2-c2ccc(C)cc2O)cc1`: the cell number change came out at 2.95%. Moreover, the AC50 under setting [1] was 0.103 µM [falling, full curve, poor fit].
In the case of `O=C(C1CCCCC1)N1CCC(c2nc3ccccc3[nH]2)CC1`, the cell number change is -8.26%. Also, the AC50 under setting [1] was 9.2 µM [rising, partial curve].
`CC1(C)C(c2cccs2)=[N+]([O-])C2(CCCCC/C2=N\O)N1O` (configuration not stated): the cell number change was 23.4%.
In the case of `CC12CCC(=O)N1C(C(=O)Nc1cccc(F)c1)CS2` (configuration not stated), the cell number change is -13.6%.
`CC(=O)NCCN1C(=O)C2C3c4ccccc4C(c4ccccc43)C2C1=O` (configuration not stated): the cell number change was -35.3%. Also, under setting [2], the AC50 is 1.3 µM [falling, full curve]. Further, the AC50 under setting [1] is 1.64 µM [falling, full curve].
On to `C=CCn1c(COc2ccccc2)nnc1SCC(=O)NCC(=O)OCC`, for which the cell number change turned out to be 21.6%. The half-maximal activity concentration (AC50) under setting [2] was 0.92 µM [rising, full curve, poor fit]. The AC50 under setting [1] was 1.84 µM [rising, full curve].
For the molecule `O=C(/C=C/c1ccccc1)OCC(=O)N1CCN(c2ccccc2)CC1`, the cell number change stood at 3.5%.
Consider `CCc1cc(SC#N)ccc1N`, for which the cell number change was found to be 78.7%.
With `O=C(Cc1ccccc1)NCCc1ccc(Cl)cc1Cl`, the cell number change was found to be 133%. The AC50 under setting [2] was 29.1 µM [rising, single point]. For the same molecule, under setting [1], the AC50 was 23.1 µM [rising, single point].
For `CCCCc1c(O)nc(SCC(=O)N2CCOCC2)n(-c2ccc(OC)cc2)c1=O`, the cell number change was -9.58%. Besides, the AC50 under setting [1] was 0.103 µM [falling, single point].
With `O=C(CCn1c(=O)sc2ccccc21)Nc1nc2ccccc2s1`, the cell number change worked out at 20.6%.
In the case of `CC1CCCC(NC(=O)c2nn(C)c3c2CS(=O)(=O)c2ccccc2-3)C1C` (configuration not stated), the cell number change is -88.1%. Also, the AC50 under setting [1] is 6.51 µM [rising, single point].
Turning to `Cc1ccc(S(=O)(=O)N2CCOCC2)cc1C(=O)Nc1ccncc1`, the cell number change was -2.4%. Under setting [2], the AC50 was 1.84 µM [falling, partial curve]. Besides, the AC50 under setting [1] was 2.06 µM [falling, partial curve].
With `Cc1ccc(C(=O)Nc2ccc3cn[nH]c3c2)cc1S(=O)(=O)N1CCCCC1`, the cell number change stood at 18.7%.
The same measure, in the same setting: next, `O=C(NCc1ccco1)c1ccccc1Br`: -0.391%.
On to `OCC[C@H]1C[C@@H](O)[C@H](O)[C@@]2(CCc3ccccc3CO2)O1`, for which the cell number change was -10.4%. Also, under setting [1], the AC50 was 6.51 µM [rising, partial curve].
`O=C(NC1=NCCS1)c1cccc(OC(F)F)c1`: the cell number change is -11.6%.
`CC1(C)NC(=O)N(CCCCOc2ccccc2[N+](=O)[O-])C1=O`: the cell number change came out at 135%. The AC50 under setting [2] was 23.1 µM [rising, partial curve].
On to `Cc1ccccc1NC(=O)NNC(=O)c1ccc2ccccc2c1`, for which the cell number change came to 21.6%. Further, under setting [1], the AC50 is 0.651 µM [rising, single point].
Take `CC(C)c1ccc(NC2(C#N)C(=O)Nc3ccccc32)cc1` (configuration not stated): the cell number change is -32.3%. Also, the AC50 under setting [2] was 29.1 µM [falling, single point].
Consider `CCOc1ccc2oc(C(=O)NNC(=O)c3csc(N4CCOCC4)n3)c(C)c2c1`, for which the cell number change turned out to be 11.5%. The AC50 under setting [1] was 6.51 µM [rising, single point].
In the case of `O=c1[nH]c(CCC2CCCC2)nc2ccccc12`, the cell number change turned out to be 10.8%. Also, under setting [1], the AC50 was 11.6 µM [rising, partial curve, poor fit].
For the molecule `COc1ccc(S(=O)(=O)N2CCC(C(=O)Nc3ccc4c(c3)OCCO4)CC2)cc1OC`, the cell number change worked out at 35.7%. Besides, the AC50 under setting [2] was 8.2 µM [rising, partial curve]. The AC50 under setting [1] was 6.51 µM [rising, single point].
With `C=CCOc1ccc(CNc2ccc(NC(=O)CC(C)C)cc2)cc1OC`, the cell number change amounted to 17.3%. Further, the AC50 under setting [1] was 20.6 µM [rising, single point].
As for `COc1ccc(N(CC(C)C)S(=O)(=O)c2nnc(NC(=O)CC(C)C)s2)cc1`, the cell number change is -29.8%.
Consider `O=C(OCC(=O)c1ccc[nH]1)c1cncc(Br)c1`, for which the cell number change came out at 8.93%. The half-maximal activity concentration (AC50) under setting [1] is 0.731 µM [rising, full curve].
For the molecule `O=C(Nc1ccc(OCC(=O)N2CCOCC2)cc1)c1cc(F)c(F)cc1Cl`, the cell number change worked out at 5.41%. Besides, under setting [1], the AC50 was 29.1 µM [rising, single point].
Take `CCn1c(CNc2ccc(OC)cc2)nnc1SCC(=O)Nc1ccc(F)cc1`: the cell number change is -28.7%. In addition, under setting [1], the AC50 was 8.2 µM [falling, partial curve].
Turning to `NNC(=O)c1cnn(-c2ccccc2)c1C(F)(F)F`, the cell number change was 63.9%. In addition, under setting [2], the AC50 was 23.1 µM [rising, single point].
In the case of `Cc1ccc(SCC(=O)NC(C)(C)C)cc1`, the cell number change is -0.363%. Besides, under setting [1], the AC50 was 0.92 µM [falling, full curve].
`CN(C)/C=C/C(=O)c1cccc(Oc2ncccn2)c1`: the cell number change is -34.2%.
In the case of `CCn1c(=O)c(C(=O)NCc2cccnc2)c(O)c2ccccc21`, the cell number change was -19.3%. In addition, the AC50 under setting [1] is 29.1 µM [rising, single point].
As to `O=C(CN1C(=O)c2ccccc2C1=O)Nc1nc(-c2cccc([N+](=O)[O-])c2)cs1`, the cell number change was 0.58%. For the same molecule, the AC50 under setting [1] is 1.16 µM [falling, full curve].
Turning to `Cc1onc(-c2ccccc2)c1C(=O)N(Cc1ccco1)Cc1cccs1`, the cell number change was determined as 20.8%. Besides, the AC50 under setting [1] was 3.26 µM [rising, partial curve].
Turning to `COc1ccccc1OCc1nc(-c2cccc([N+](=O)[O-])c2)no1`, the cell number change turned out to be 111%. Also, under setting [2], the AC50 is 23.1 µM [rising, single point]. Further, under setting [1], the AC50 is 0.651 µM [rising, single point].
Consider `Cc1ccc(S(=O)(=O)N2CCCCC2)cc1NC(=O)c1c(-c2ccccc2)noc1C`, for which the cell number change is 14.3%. The AC50 under setting [1] was 0.058 µM [rising, full curve, poor fit].
For `CCOc1cc(C2C3=C(CCCC3=O)N(CC(=O)O)C3=C2C(=O)CCC3)ccc1OC`, the cell number change was found to be 5.82%. Under setting [1], the AC50 was 29.1 µM [rising, partial curve, poor fit].
`O=C(NC1CC1)C1CCCN1C(=O)NC1CCCCC1` (configuration not stated): the cell number change is -4.75%. Besides, the AC50 under setting [1] was 0.0651 µM [rising, full curve, poor fit].
For `O=C(CNc1cccc(C(F)(F)F)c1)N/N=C/c1cccc(Br)c1`, the cell number change was -64.6%. For the same molecule, under setting [2], the AC50 was 9.2 µM [falling, partial curve]. Besides, the AC50 under setting [1] is 9.2 µM [falling, partial curve].
In the case of `O=C(O)c1nn(CCOc2cccc(Br)c2)c(=O)c2ccccc12`, the cell number change turned out to be 12.8%.
`COc1cc(NC(=O)Cn2cnc3sc(C)c(S(=O)(=O)N4CCOCC4)c3c2=O)cc(OC)c1OC`: the cell number change was -21.9%. Also, under setting [2], the AC50 is 1.03 µM [falling, full curve, poor fit]. Also, the AC50 under setting [1] is 6.51 µM [rising, single point].
Regarding `COc1cccc(OCc2nnc(SCC(=O)OCc3ccccc3)o2)c1`, the cell number change was 0.668%. Besides, the concentration at half-maximal activity (AC50) under setting [1] was 8.2 µM [falling, partial curve].
Turning to `Cc1oc(-c2ccccc2Cl)nc1CS(=O)CC(=O)NC1CC1` (configuration not stated), the cell number change was -4.18%.
Regarding `O=S(=O)(NCC1CCCO1)c1ccc(Cl)c(C(F)(F)F)c1` (configuration not stated), the cell number change turned out to be 20.4%. Also, the AC50 under setting [1] is 3.66 µM [falling, partial curve, poor fit].
Take `Cc1ccc(OCC(=O)N(C)CC(=O)Nc2ccc(Cl)c(C(F)(F)F)c2)c([N+](=O)[O-])n1`: the cell number change is 5.71%. The AC50 under setting [1] is 0.0517 µM [falling, full curve, poor fit].
`Cc1ccc(OCCSc2nnc(NC(=O)c3ccco3)s2)cc1`: the cell number change is -45.9%. In addition, under setting [2], the AC50 was 2.59 µM [falling, full curve]. Under setting [1], the AC50 is 7.31 µM [falling, partial curve].
Turning to `N#CCCn1cc(C(=O)Nc2ccccn2)c(-c2ccccc2)n1`, the cell number change was 13.9%. The AC50 under setting [1] was 29.1 µM [rising, single point].
For `CC(C)Cn1c2c(c(=O)[nH]c1=O)C(C(F)(F)F)(C(F)(F)F)N=C(CCC1CCCCC1)N2`, the cell number change is -26%. Besides, the AC50 under setting [1] is 0.411 µM [falling, partial curve, poor fit].
Regarding `Cc1cccc(-c2n[nH]c(=S)n2/N=C/c2ccc(C)s2)c1`, the cell number change is -54.4%. Also, the AC50 under setting [2] is 29.1 µM [falling, single point].
Turning to `Cc1cc(=O)[nH]c(SCC(=O)Nc2c(C)n(C)n(-c3ccccc3)c2=O)n1`, the cell number change is -3.98%. For the same molecule, under setting [1], the AC50 was 20.6 µM [rising, partial curve, poor fit].
`Cn1c(Cl)c(/C=N/OC(=O)c2cccc(Cl)c2)c2ccccc21`: the cell number change is -0.115%. Moreover, under setting [2], the AC50 was 0.92 µM [falling, full curve].
Turning to `O=C(OC(C(=O)NCc1cccs1)c1ccccn1)c1cccs1` (configuration not stated), the cell number change was 50.8%. The AC50 under setting [2] is 5.8 µM [rising, full curve].
With `CC1CCN(c2ccc(C(F)(F)F)cc2N)CC1`, the cell number change is -32.9%.
With `Cc1ccc(C2/C(=C(\O)c3ccc4c(c3)OCCO4)C(=O)C(=O)N2CCCN(C)C)o1` (configuration not stated), the cell number change was determined as 16.5%. Besides, under setting [1], the AC50 was 6.51 µM [falling, single point].
`CC1CCCC(C)N1/N=C/c1ccc(O)c(O)c1` (configuration not stated): the cell number change worked out at 47.5%. The AC50 under setting [2] is 14.6 µM [rising, single point]. The concentration at half-maximal activity (AC50) under setting [1] was 29.1 µM [rising, partial curve, poor fit].
